Data as given in PubChem BioAssay AID1224826 (NIAID, 2016)

Test: 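Genes that change LPS-induced Tnf promoter activity in mouse macrophages when knocked down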 (primary screen)
Cell system: RAW264.7 G9 macrophages from mouse bearing reporters for p65 (GFP) and the Tnf promoter (mCherry)
Reagent: siRNA pool against mouse genes, 100 nM
Time to read-out: 16 h of LPS stimulation, after 2 days of siRNA transfection
Treatment: bacterial lipopolysaccharide (Salmonella minnesota R595), 10 ng/ml
Measured: 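Nuclear mCherry signal of the Tnf promoter reporter measured by imaging after background removal, scaled to each plate median and turned into robust z-scores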
Direction: Tnf reporter robust z-score: higher = stronger Tnf promoter reporter signal after LPS
Rule for the call: 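Called active when robust z-score is at most -1.3, matching the median of the Tlr4 knock-down control, or over 3; control wells and wells with under 50 cells never active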
Calls: active = Tnf reporter clearly lowered or raised; inactive = no clear change in Tnf reporter
The whole screen tested about 17,000 reagents; this is a part drawn at random. About 1,110 of them (6.6%) count as active. 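Active means lowered or raised reporter signal; replicate intensities are raw and not normalised per plate.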 Further read-outs or replicates are left out here. Reagent sequences are not shown.

{"gene": "Cxcl13", "Tnf reporter robust z-score": -0.71, "fewer than 50 cells in well": "enough cells in well", "call": "inactive"}
{"gene": "Fuca1", "Tnf reporter robust z-score": 0.19, "fewer than 50 cells in well": "enough cells in well", "call": "inactive"}
{"gene": "Klhl38", "Tnf reporter robust z-score": -0.6, "fewer than 50 cells in well": "enough cells in well", "call": "inactive"}
{"gene": "Atosa", "Tnf reporter robust z-score": -0.83, "fewer than 50 cells in well": "enough cells in well", "call": "inactive"}
{"gene": "Ier2", "Tnf reporter robust z-score": 3.26, "fewer than 50 cells in well": "enough cells in well", "call": "active"}
{"gene": "Hsd17b8", "Tnf reporter robust z-score": -0.53, "fewer than 50 cells in well": "enough cells in well", "call": "inactive"}
{"gene": "Hacd1", "Tnf reporter robust z-score": 0.27, "fewer than 50 cells in well": "enough cells in well", "call": "inactive"}
{"gene": "Or9k7", "fewer than 50 cells in well": "fewer than 50 cells per well; well left out of calls", "call": "inactive"}
{"gene": "Tert", "Tnf reporter robust z-score": 1.05, "fewer than 50 cells in well": "enough cells in well", "call": "inactive"}
{"gene": "Or8b51", "Tnf reporter robust z-score": 0.88, "fewer than 50 cells in well": "enough cells in well", "call": "inactive"}
{"gene": "Tpsb2", "Tnf reporter robust z-score": -1.22, "fewer than 50 cells in well": "enough cells in well", "call": "inactive"}
{"gene": "Rbmxl1", "Tnf reporter robust z-score": 3.2, "fewer than 50 cells in well": "enough cells in well", "call": "active"}
{"gene": "Magoh", "Tnf reporter robust z-score": -0.31, "fewer than 50 cells in well": "enough cells in well", "call": "inactive"}
{"gene": "Lgr5", "Tnf reporter robust z-score": 0.14, "fewer than 50 cells in well": "enough cells in well", "call": "inactive"}
{"gene": "Ctsm", "Tnf reporter robust z-score": -0.44, "fewer than 50 cells in well": "enough cells in well", "call": "inactive"}
{"gene": "Nip7", "Tnf reporter robust z-score": 1.66, "fewer than 50 cells in well": "enough cells in well", "call": "inactive"}
{"gene": "C3", "Tnf reporter robust z-score": -0.51, "fewer than 50 cells in well": "enough cells in well", "call": "inactive"}
{"gene": "Eaf2", "Tnf reporter robust z-score": 0.04, "fewer than 50 cells in well": "enough cells in well", "call": "inactive"}
{"gene": "Tecta", "Tnf reporter robust z-score": 0.27, "fewer than 50 cells in well": "enough cells in well", "call": "inactive"}
{"gene": "Aldh3b2", "Tnf reporter robust z-score": 1.07, "fewer than 50 cells in well": "enough cells in well", "call": "inactive"}
{"gene": "Tmem184a", "Tnf reporter robust z-score": -0.09, "fewer than 50 cells in well": "enough cells in well", "call": "inactive"}
